From patent US20150329501A1, “SUBSTITUTED [1,2,4]TRIAZOLE COMPOUNDS AND THEIR USE AS FUNGICIDES” (BASF SE, priority 2012, published 2015)
Some entries share one result that the patent states for a list of compounds.

Legend:
Puccinia recondita = experiment: Green house: preventative control of brown rust on wheat caused by Puccinia recondita (Puccrt P1) (G3); format: in vivo; conditions: 300 ppm, sprayed the day before inoculation, untreated plants 90% infected
Alternaria solani [1] = experiment: Green house: preventative fungicidal control of early blight on tomatoes (Alternaria solani) (Alteso P1) (G2, G2-2); conditions: 300 ppm, sprayed the day before inoculation; tomato; untreated plants 80% infected
Septoria tritici [2] = experiment: Microtest: activity against leaf blotch on wheat caused by Septoria tritici (Septtr) (M1, M6, M2-3, CM4); format: cell-based; conditions: 32 ppm; 405 nm, 7 days after inoculation; compound-free control = 100%
Septoria tritici [3] = experiment: Green house: preventative control of leaf blotch on wheat caused by Septoria tritici (Septtr P1) (G4); format: in vivo; conditions: 300 ppm, sprayed the day before inoculation, untreated plants 80% infected
Botrytis cinerea = experiment: Microtest: activity against the grey mold Botrytis cinerea in the microtiterplate test (Botrci) (M2, M4, M2-1, CM3); format: cell-based; conditions: 32 ppm; 405 nm, 7 days after inoculation; compound-free control = 100%
Phakopsora pachyrhizi = experiment: Green house: protective control of soy bean rust on soy beans caused by Phakopsora pachyrhizi (Phakpa P1) (G1); format: in vivo; conditions: 300 ppm, sprayed 1 day before inoculation, untreated plants 90% infected
Alternaria solani [4] = experiment: Microtest: activity against early blight caused by Alternaria solani (Alteso) (M3); format: cell-based; conditions: 32 ppm; 405 nm, 7 days after inoculation; compound-free control = 100%

SMILES | infection (% diseased leaf area) (Puccinia recondita) | infection (% diseased leaf area) (Alternaria solani [1]) | relative growth in % of the pathogen (Septoria tritici [2]) | infection (% diseased leaf area) (Septoria tritici [3]) | relative growth in % of the pathogen (Botrytis cinerea) | infection (% diseased leaf area) (Phakopsora pachyrhizi) | relative growth in % of the pathogen (Alternaria solani [4])
CC(O)(Cn1cncn1)c1cc(-c2ccc(Cl)cc2)ccc1Cl (centres unmarked) [Compound I-1, 2-[2-Chloro-5-(4-chlorophenyl)phenyl]-1-(1,2,4-triazol-1-yl)propan-2-ol] | less than or equal to 10% | less than or equal to 10% | ≤ 9% | less than or equal to 10% | ≤ 7% | less than or equal to 10% | ≤ 13%
C#CCOC(Cn1cncn1)(c1cc(Oc2ccc(Cl)cc2)ccc1Cl)C(C)C (centres unmarked) [Compound I-18, 1-[2-[2-chloro-5-(4-chlorophenoxyl)phenyl]-3-methyl-2-prop-2-ynoxy-butyl]-1,2,4-triazole] | less than or equal to 10% | less than or equal to 10% | ≤ 9% |  |  |  | ≤ 13%
